Earlier results as cited in patent publication US8324185B2, “Composition for the treatment of obesity and hyperlipidemia” (Nucitec, S.A. DF C.V., priority 2004, dated 2012).
Some results were stated once for a whole list of compounds, not compound by compound.

Details: dietary fat; cited from earlier work

Structure (SMILES): CCCCC/C=C\C/C=C\C[C@@H](C[C@@H]1OC(=O)[C@H]1CCCCCC)OC(=O)[C@H](CC(C)C)NC=O [Lipstatin]
- reduction in fat absorption from the diet: up to 30%
